No constants are given. Whether binding was seen depends on the method and setting. Some entries that bind do so weakly or less than the wild type.
Tests used:
[1] = molecular target: transmembrane human FAP on FAP expressing HEK293 cells (human) (UniProt Q12884); assay: flow cytometry: Cy5-labelled antibody on FAP-expressing HEK293 cells in pH-adjusted PBS; delta MFI = MFI of the antibody minus MFI of Cy5-43A11; the antibody concentration of the plotted curve is not given on the sheet
[2] = molecular target: transmembrane human FAP on FAP expressing HEK293 cells (human) (UniProt Q12884); assay: flow cytometry, Cy5 labelled antibody on FAP+ HEK293 cells in pH adjusted PBS (FIG. 24A)
[3] = molecular target: recombinant human Fibroblast Activation Protein (FAP) with N-terminus 6x histidine tag (human) (UniProt Q12884); assay: sandwich ELISA: F19 coated as capture antibody, rhFAP titrated, HRP-labelled NI-206.82C2 as detection antibody [C]
[4] = molecular target: recombinant human Fibroblast Activation Protein (FAP) with N-terminus 6x histidine tag (human) (UniProt Q12884); assay: ELISA: enzyme captured by anti-tag antibody, HRP-labelled NI-206.82C2 titrated 0.004-400 nM (FIG. 7E)
[5] = molecular target: T1, FAP peptide 132 (525-…-539) (human); assay: pepscan, spotted 15-mer peptides
T1 sequence (peptide): PPQFDRSKKYPLLIQ

Amino acid sequences for entries named in this document (tags omitted). A change or cut given only in a name is not applied to a line headed by its entry. Chains listed by the source or under a name are the forms on record and can include a tag or linker.
UniProt Q12884: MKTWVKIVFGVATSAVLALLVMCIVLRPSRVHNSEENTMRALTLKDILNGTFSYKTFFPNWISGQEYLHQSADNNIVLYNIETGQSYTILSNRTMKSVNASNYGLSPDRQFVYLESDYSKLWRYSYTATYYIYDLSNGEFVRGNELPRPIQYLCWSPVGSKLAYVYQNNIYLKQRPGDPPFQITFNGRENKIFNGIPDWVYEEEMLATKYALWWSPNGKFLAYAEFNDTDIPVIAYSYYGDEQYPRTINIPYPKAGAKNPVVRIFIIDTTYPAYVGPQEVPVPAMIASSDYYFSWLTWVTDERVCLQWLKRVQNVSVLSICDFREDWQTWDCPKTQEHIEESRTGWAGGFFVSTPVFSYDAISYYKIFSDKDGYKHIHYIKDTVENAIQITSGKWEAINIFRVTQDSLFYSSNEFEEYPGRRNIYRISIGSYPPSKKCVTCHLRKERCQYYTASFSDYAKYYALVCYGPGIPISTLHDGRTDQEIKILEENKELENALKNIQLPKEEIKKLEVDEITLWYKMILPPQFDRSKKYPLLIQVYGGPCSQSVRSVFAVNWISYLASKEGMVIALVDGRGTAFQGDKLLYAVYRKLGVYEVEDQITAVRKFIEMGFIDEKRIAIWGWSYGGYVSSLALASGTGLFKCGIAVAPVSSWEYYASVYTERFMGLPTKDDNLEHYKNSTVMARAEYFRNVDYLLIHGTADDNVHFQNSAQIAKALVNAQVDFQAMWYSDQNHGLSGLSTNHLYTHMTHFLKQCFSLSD
recombinant human Fibroblast Activation Protein (FAP) with N-terminus 6x histidine tag (Q12884, form named): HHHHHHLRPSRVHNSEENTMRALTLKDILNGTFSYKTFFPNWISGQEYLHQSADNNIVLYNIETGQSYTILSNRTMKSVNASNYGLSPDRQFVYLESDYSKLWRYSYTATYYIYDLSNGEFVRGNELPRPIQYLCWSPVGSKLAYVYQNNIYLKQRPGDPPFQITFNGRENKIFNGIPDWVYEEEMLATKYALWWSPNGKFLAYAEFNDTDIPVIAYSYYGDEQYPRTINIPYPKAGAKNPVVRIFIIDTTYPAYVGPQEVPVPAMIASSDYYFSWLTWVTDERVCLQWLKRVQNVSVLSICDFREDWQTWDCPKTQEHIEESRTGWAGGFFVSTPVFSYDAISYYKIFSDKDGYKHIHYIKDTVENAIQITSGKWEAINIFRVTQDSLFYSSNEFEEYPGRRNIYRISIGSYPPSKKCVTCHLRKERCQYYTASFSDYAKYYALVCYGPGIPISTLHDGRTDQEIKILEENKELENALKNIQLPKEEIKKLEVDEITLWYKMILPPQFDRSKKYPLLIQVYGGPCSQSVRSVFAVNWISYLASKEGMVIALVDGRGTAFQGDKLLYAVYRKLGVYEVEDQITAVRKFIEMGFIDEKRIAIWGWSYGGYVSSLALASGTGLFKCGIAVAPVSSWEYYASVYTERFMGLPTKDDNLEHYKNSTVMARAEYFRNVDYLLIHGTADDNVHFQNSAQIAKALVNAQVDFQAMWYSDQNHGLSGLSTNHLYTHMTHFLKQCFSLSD

[6] = molecular target: T2, FAP peptide 131 (521-…-535) (human); assay: pepscan, spotted 15-mer peptides
T2 sequence (peptide): KMILPPQFDRSKKYP

[7] = molecular target: recombinant human Fibroblast Activation Protein (FAP) with N-terminus 6x histidine tag (human) (UniProt Q12884); assay: direct ELISA, OD 450 nm (FIG. 2B)
[8] = molecular target: recombinant human Fibroblast Activation Protein (FAP) with N-terminus 6x histidine tag (human) (UniProt Q12884); assay: capture ELISA, OD 450 nm (FIG. 2A)
[9] = molecular target: T1, FAP peptide 132 (525-…-539) (human); assay: pepscan, antibody at 1 µg/ml (FIG. 4A)
[10] = molecular target: T2, FAP peptide 131 (521-…-535) (human); assay: pepscan, antibody at 1 µg/ml (FIG. 4A)
[11] = molecular target: T3, FAP peptide 29 (113-…-127) (human); assay: pepscan, antibody at 1 µg/ml (FIG. 4A)
T3 sequence (peptide): YLESDYSKLWRYSYT

[12] = molecular target: T4, FAP peptide 28 (109-…-123) (human); assay: pepscan, antibody at 1 µg/ml (FIG. 4A)
T4 sequence (peptide): RQFVYLESDYSKLWR

[13] = molecular target: T5, FAP peptide fragment 521-…-539 (human); assay: truncation peptide array; spot 21 is the full length peptide
T5 sequence (peptide): KMILPPQFDRSKKYPLLIQ

[14] = molecular target: recombinant human Fibroblast Activation Protein (FAP) with N-terminus 6x histidine tag (human) (UniProt Q12884); assay: ELISA: rhFAP captured through its His-tag by coated anti-His antibody (sFAP), antibody at 20, 4 and 0.8 nM
[15] = molecular target: recombinant human Fibroblast Activation Protein (FAP) with N-terminus 6x histidine tag (human) (UniProt Q12884); assay: capture and direct ELISA
[16] = molecular target: recombinant human Fibroblast Activation Protein (FAP) with N-terminus 6x histidine tag (human) (UniProt Q12884); assay: sandwich ELISA: F19 capture, HRP-labelled 82C2 detection (FIG. 17)
[17] = molecular target: transmembrane human FAP on FAP expressing HEK293 cells (human) (UniProt Q12884); assay: flow cytometry on FAP-HEK293 cells, ΔMFI against 43A11, pH 6.2-7.4
[18] = molecular target: recombinant human Fibroblast Activation Protein (FAP) with N-terminus 6x histidine tag (human) (UniProt Q12884); assay: ELISA at 20, 4 and 0.8 nM antibody (FIG. 7A)
[19] = molecular target: recombinant human Fibroblast Activation Protein (FAP) with N-terminus 6x histidine tag (human) (UniProt Q12884); assay: ELISA: rhFAP held on the plate by an anti-tag antibody, HRP-labelled NI-206.82C2 titrated, TMB, OD 450 nm; markers as in the legend box beside panel F [continued) E]

Measured: binding

B1: NI-206.82C2 (antibody, V domains shown)
VH: QVQLQQSGPGLVKPSQTLSLTCAISGDSVSSNSVTWNWIRQSPSRGLEWLGRTYYRSKWYNDYAVSVKGRITINPDTSKNQFYLQLKSVTPEDAAVYYCARDSSILYGDYWGQGTLVTVSS
VL: QAVLTQPSSLSASPGASASLTCTLPSGINVGTYRIFWFQQKPGSPPQYLLSYKSDSDNHQGSGVPSRFSGSKDASANAGILLISGLQSEDEADYYCMIWHSSAWVFGGGTKLTVL
binds: [1] | [2] | [3] | [4] | [5] | [6] | [7] | [8] | [9] | [10] | [11] | [12] | [13] | [14] | [15] | [16] | [17] | [18] | [19]

Reference: patent US20180022822A1, “NOVEL ANTI-FIBROBLAST ACTIVATION PROTEIN (FAP) BINDING AGENTS AND USES THEREOF” (Mabimmune Diagnostics AG, priority 2016, published 2018)
